Binding data for one substance are collected here from article PMC11214632.

Protein sequences, listed by entry. Tags and fused reporters are not part of them.
UniProt Q99J95: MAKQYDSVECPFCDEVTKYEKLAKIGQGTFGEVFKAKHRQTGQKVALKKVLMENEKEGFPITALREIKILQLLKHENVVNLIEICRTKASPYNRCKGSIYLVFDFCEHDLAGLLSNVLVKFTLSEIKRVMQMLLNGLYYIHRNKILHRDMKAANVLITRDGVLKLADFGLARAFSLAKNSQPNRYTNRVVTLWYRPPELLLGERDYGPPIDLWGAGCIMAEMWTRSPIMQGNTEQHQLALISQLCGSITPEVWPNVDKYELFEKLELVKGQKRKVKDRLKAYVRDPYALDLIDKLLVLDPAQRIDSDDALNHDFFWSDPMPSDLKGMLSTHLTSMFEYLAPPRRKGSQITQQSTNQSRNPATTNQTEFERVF

The assay has as its target T1, Tripartite motif-containing 33 (TRIM33) (mouse (endogenous in C57BL/6 BM Lin–FLT3+ cells and in Mutu DC1940 cells)) (UniProt Q99PP7).
T1 sequence: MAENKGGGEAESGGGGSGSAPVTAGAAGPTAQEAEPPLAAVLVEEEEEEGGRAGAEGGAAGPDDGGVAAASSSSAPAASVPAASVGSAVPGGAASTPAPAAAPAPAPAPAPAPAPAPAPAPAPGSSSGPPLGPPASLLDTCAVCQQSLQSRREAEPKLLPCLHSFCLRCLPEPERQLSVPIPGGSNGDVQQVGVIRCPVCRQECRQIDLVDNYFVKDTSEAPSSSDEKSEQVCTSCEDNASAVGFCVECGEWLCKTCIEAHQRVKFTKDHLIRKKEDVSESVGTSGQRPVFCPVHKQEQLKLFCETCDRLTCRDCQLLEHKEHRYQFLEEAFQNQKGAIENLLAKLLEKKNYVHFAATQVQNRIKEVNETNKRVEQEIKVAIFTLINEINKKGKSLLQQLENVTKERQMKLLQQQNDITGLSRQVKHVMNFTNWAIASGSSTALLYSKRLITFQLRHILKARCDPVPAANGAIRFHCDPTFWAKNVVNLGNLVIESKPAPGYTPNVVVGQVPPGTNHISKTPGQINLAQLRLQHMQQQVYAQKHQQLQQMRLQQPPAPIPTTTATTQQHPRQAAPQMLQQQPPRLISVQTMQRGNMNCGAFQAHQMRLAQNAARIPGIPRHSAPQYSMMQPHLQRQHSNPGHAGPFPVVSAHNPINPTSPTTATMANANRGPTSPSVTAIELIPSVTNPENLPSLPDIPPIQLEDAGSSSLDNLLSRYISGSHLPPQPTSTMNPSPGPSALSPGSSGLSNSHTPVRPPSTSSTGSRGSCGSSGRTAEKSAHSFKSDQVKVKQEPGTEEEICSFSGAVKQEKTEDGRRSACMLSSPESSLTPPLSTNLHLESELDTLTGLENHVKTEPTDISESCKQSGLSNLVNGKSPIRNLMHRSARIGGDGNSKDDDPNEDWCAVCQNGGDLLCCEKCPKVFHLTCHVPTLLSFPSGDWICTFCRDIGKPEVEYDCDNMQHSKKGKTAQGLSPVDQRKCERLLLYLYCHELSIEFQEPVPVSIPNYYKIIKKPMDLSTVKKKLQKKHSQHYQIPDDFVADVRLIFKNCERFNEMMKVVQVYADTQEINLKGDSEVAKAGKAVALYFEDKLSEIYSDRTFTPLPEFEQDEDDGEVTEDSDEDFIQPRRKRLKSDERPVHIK
Kind of assay: affinity purification with mass spectrometry; lysates of BM Lin–FLT3+ cells of wild-type C57BL/6 mice incubated with anti-TRIM33 antibody or control IgG at 4 °C overnight, Protein A + G magnetic beads, SDS-PAGE, LC-MS/MS.

No constants are given. Whether binding was seen depends on the method and setting. In cells and extracts the contact can be indirect. A yes stands for co-enrichment or nearness to the bait. Other partners may have been found.

Regarding “cyclin-dependent kinase 9 (CDK9) (from UniProt Q99J95 1-372)”, the binding entry is recorded as “binds”.
